These are yes or no findings as the source states them, for the method shown. In cells and extracts the contact can be indirect.
Target: RCC2-YFP (UniProt Q9P258)
Experiment: co-IP; pre-cleared lysate of HeLa cells expressing YFP or RCC2-YFP; rabbit anti-GFP antibody overnight at 4 °C, protein A-Sepharose 1 h, three washes in lysis buffer; Western blot with anti-GFP, anti-Rac1, anti-cdc42 or anti-Rho A

The chains behind the UniProt entries cited, without tags or fusion partners.
UniProt P61586: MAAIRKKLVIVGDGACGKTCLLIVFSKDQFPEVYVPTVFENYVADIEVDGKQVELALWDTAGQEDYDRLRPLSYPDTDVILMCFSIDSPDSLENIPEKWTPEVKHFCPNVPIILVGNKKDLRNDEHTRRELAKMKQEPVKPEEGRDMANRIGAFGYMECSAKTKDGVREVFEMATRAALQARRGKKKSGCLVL

binding: no binding
Substance: Rho A (from UniProt P61586 1-193)
